{
  "source": "paper PMC8146397",
  "about": "(Nanomaterials, 2021)",
  "assay": "In vivo pharmacokinetics after oral delivery (HPLC of plasma)",
  "description": "Healthy mice weighing 30 g were kept in the primate facility with free access to food and water a day before the commencement of the experiment. The mice were divided into two groups (n = 5). […] Blood plasma was stored at −20 °C until further use.",
  "data": [
    {"smiles": "O=C(O)c1cn(C2CC2)c2cc(N3CCNCC3)c(F)cc2c1=O", "note": "[CIP, Ciprofloxacin]", "values": [
      {"measurement": "C max", "setting": "mice, oral", "value": "54.50 ± 2.57", "unit": "µg/mL"},
      {"measurement": "AUC(0-t)", "setting": "mouse, in vivo, po", "value": "211 ± 3.59", "unit": "µg·h/mL"},
      {"measurement": "Tmax", "setting": "mouse, in vivo, po", "value": "1 ± 3.37", "unit": "h"},
      {"measurement": "Cmax", "setting": "mouse, in vivo, po, C max, mice", "value": 54.3, "unit": "µg/mL"}
    ]}
  ]
}
